For test [1], the target named is ACTN1 (GST-tagged, on the HuProt 20K human proteome microarray) (human) (UniProt P12814). Description: peptide or protein array; HuProt 20K human proteome microarray with over 21,000 affinity-purified GST-tagged proteins, probed with biotin-hCHI3L1; both purified.
In test [2] the target is ACTN4 (actinin alpha 4; GST-tagged, on the HuProt 20K human proteome microarray) (human) (UniProt O43707). The description is as above.
Test [3] concerns the target NFKB1 (GST-tagged, on the HuProt 20K human proteome microarray) (human) (UniProt P19838). The description is as above.
Test [4] concerns the target T1, NFKB2 (GST-tagged, on the HuProt 20K human proteome microarray) (human) (UniProt Q00653).
T1 sequence: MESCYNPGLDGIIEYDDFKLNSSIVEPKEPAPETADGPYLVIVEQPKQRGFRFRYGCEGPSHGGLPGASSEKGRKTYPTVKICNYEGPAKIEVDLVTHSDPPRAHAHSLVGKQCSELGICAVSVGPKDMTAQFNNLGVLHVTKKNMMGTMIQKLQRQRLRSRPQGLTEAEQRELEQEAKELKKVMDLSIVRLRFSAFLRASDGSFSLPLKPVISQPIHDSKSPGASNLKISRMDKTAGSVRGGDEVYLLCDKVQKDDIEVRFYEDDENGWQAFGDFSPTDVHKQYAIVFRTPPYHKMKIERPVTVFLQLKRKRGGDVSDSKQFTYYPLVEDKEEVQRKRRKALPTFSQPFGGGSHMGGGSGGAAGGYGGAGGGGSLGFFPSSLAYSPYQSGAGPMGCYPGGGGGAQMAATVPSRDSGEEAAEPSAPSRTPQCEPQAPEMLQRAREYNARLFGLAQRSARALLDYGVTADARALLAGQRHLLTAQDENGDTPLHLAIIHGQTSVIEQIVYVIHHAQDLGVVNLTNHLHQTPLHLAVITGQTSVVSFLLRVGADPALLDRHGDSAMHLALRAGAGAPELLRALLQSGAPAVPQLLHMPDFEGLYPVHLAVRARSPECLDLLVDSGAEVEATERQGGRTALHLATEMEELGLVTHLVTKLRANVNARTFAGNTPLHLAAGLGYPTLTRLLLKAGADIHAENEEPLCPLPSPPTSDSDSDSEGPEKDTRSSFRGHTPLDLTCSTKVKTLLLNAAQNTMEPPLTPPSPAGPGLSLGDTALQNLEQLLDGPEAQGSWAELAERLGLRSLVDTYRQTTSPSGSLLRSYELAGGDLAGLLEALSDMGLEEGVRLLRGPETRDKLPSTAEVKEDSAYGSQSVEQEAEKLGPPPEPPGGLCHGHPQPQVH
The test is described as above.

The chains behind the UniProt entries cited, without tags or fusion partners. Residues count along the entry.
UniProt P12814: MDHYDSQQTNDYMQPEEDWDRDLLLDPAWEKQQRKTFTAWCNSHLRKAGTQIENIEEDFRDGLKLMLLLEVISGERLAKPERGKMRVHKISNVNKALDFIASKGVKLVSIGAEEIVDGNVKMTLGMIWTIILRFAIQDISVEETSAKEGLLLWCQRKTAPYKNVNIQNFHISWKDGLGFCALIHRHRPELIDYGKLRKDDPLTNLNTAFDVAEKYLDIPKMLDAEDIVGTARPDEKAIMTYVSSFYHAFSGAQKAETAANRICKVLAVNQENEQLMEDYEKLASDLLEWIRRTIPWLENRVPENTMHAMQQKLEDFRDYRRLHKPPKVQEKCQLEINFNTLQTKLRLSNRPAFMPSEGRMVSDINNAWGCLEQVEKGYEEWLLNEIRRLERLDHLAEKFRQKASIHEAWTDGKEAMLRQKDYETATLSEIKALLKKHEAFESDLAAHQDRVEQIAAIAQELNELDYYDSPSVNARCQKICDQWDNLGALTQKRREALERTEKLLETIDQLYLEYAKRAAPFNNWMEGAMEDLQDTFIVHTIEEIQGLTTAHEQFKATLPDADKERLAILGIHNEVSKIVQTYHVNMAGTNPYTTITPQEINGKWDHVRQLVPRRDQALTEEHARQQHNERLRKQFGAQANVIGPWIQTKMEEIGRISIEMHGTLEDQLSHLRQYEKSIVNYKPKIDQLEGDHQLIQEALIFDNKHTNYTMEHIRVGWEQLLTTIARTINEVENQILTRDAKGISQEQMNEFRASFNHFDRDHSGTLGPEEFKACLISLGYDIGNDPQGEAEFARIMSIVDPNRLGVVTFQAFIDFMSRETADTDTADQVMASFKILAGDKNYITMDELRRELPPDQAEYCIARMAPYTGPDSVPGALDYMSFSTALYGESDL
UniProt O43707: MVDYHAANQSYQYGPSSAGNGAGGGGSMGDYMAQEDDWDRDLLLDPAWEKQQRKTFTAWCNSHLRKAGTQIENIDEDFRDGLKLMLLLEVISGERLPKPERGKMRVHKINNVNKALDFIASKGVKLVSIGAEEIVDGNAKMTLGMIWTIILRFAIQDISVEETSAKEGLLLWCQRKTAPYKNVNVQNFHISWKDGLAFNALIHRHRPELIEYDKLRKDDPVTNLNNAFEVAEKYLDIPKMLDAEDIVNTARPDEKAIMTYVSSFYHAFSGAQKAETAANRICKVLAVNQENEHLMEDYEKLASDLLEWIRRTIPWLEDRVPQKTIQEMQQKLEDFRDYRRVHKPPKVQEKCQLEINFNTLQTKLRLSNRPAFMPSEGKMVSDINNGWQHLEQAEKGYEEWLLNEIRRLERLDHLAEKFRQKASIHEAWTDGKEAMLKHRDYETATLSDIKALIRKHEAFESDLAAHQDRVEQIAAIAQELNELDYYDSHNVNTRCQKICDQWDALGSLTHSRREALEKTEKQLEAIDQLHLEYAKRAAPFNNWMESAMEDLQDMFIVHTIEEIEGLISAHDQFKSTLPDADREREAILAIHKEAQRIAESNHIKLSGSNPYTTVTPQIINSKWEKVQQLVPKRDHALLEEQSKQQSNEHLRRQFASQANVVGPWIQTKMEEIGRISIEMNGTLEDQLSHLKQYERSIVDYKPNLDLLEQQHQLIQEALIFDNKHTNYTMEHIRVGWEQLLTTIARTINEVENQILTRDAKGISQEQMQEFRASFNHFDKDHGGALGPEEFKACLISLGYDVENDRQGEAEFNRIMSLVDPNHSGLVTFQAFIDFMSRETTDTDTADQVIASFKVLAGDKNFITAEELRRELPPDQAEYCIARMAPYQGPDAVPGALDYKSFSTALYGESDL
UniProt P19838: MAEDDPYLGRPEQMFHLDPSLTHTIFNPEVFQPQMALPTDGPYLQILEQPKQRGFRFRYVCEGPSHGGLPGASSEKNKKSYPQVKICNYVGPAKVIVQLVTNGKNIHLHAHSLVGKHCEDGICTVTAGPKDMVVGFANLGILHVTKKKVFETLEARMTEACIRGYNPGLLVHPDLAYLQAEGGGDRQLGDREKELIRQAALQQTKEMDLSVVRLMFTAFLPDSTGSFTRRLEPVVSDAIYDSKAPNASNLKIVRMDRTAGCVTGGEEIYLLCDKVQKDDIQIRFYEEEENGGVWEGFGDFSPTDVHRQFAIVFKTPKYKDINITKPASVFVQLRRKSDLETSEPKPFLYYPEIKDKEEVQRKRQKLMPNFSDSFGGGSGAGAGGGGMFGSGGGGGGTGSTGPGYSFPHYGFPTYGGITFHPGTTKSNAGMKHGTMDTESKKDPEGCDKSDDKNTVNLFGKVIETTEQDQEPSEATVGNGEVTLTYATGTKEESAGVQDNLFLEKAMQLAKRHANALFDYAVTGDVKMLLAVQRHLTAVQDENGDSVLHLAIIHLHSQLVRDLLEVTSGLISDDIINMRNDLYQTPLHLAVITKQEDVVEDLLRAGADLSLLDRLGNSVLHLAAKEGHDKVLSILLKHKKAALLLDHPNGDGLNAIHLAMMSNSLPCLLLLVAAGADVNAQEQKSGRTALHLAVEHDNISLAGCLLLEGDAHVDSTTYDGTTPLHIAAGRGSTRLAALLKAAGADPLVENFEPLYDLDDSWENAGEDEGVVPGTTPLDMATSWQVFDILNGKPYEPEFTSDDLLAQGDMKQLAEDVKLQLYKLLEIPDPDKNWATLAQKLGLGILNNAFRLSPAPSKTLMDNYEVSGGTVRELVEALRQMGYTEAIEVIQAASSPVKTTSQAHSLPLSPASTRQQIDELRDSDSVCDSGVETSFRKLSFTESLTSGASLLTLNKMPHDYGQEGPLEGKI
UniProt P36222, residues 22-383: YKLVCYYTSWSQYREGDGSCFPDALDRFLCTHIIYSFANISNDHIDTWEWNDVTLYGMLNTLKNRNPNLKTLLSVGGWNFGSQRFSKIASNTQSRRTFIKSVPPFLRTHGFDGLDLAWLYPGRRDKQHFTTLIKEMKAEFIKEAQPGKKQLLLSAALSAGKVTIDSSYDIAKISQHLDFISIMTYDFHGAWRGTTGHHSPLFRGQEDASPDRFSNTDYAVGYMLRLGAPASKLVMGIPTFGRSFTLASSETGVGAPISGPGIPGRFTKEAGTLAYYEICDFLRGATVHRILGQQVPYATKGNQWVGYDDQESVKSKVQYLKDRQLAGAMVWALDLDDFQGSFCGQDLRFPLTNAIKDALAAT

Test [5] addresses T2, NFKBIB (GST-tagged, on the HuProt 20K human proteome microarray) (human) (UniProt Q15653).
T2 sequence: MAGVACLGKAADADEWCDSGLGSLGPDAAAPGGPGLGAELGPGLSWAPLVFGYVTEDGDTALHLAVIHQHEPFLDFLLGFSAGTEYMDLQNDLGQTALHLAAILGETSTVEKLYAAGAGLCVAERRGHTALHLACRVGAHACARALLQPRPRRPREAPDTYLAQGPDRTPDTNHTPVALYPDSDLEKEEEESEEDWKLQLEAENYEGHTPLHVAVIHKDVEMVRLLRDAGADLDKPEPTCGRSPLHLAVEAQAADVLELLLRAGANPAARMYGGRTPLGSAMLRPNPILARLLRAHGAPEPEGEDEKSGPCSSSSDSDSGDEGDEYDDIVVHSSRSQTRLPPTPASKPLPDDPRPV
Described as above.

The target in test [6] is CHI3L1 (Chitinase-3-like protein 1), endogenous in glioblastoma cells (human (endogenous in U87MG and A172)) (UniProt P36222). Description: co-IP; cytoplasmic and nuclear proteins isolated from U87MG cells, immunoprecipitated with IgG or anti-CHI3L1 antibody, immunoblot.
Test [7] shares this target. Description: co-IP; whole lysates of U87MG and A172 cells in IP buffer (20 mM Tris pH 7.5, 150 mM NaCl, 1% TritonX-100, 1 mM EDTA); anti-CHI3L1 antibody or IgG overnight at 4 °C, protein G agarose; immunoblot.

These are yes or no findings as the source states them, for the method shown. For some assays here: Binding seen in cells or lysates may run through a third protein. Some results given as binding are weak or reduced against the parent protein; the word gives no strength. For some assays here: Sequences can lack the tags named with a protein.

Consider “recombinant human CHI3L1 (Chitinase-3-like protein 1), biotin-labelled (from UniProt P36222 22-383)”, for which the binding result in test [1], in test [2], in test [3], in test [4] and in test [5] was “binds” in each case.

For “NFKB1, endogenous in U87MG cells (from UniProt P19838 1-968)”, the binding entry in test [6] is “binds”.

As to “ACTN4 (actinin alpha 4), endogenous in glioblastoma cells (from UniProt O43707 1-911)”, the binding entry in test [6] and in test [7] was “binds” each time.

Source of the values: article PMC9576612.
